No constants are given. Whether binding was seen depends on the method and setting. In cells and extracts the contact can be indirect. Some entries that bind do so weakly or less than the wild type. For part of these data: Sequences can lack the tags named with a protein.
T1: viperin-mCherry (UniProt Q8WXG1)
T1 sequence: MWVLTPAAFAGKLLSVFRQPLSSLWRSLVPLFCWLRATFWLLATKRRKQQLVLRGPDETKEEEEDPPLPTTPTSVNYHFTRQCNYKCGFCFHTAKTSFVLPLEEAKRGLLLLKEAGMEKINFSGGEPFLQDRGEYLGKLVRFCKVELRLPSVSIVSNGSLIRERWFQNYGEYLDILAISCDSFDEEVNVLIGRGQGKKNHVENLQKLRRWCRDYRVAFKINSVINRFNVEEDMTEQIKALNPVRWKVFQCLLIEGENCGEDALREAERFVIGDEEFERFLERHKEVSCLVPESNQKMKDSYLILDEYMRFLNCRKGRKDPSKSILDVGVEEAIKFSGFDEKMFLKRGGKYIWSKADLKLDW

By UniProt entry, the sequences of proteins in these tests, tags left out. Where a name states a change or a piece, a line headed by the entry shows the natural chain unless it says otherwise.
UniProt Q86WV6, whole entry: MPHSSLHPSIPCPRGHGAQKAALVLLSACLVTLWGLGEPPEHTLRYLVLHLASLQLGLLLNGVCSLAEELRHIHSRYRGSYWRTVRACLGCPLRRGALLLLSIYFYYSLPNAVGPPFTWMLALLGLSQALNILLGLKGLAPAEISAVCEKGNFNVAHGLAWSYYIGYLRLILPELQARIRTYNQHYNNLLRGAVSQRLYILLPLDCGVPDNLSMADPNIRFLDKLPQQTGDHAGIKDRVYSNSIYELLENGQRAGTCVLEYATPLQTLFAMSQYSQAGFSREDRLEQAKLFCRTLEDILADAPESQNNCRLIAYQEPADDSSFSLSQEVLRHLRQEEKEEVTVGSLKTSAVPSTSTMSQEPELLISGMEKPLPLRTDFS

T2: viperin-flag (UniProt Q8WXG1)
T2 sequence: T1 sequence

B1: TBK1-myc (protein, UniProt Q9UHD2 1-729)
chain: MQSTSNHLWLLSDILGQGATANVFRGRHKKTGDLFAIKVFNNISFLRPVDVQMREFEVLKKLNHKNIVKLFAIEEETTTRHKVLIMEFCPCGSLYTVLEEPSNAYGLPESEFLIVLRDVVGGMNHLRENGIVHRDIKPGNIMRVIGEDGQSVYKLTDFGAARELEDDEQFVSLYGTEEYLHPDMYERAVLRKDHQKKYGATVDLWSIGVTFYHAATGSLPFRPFEGPRRNKEVMYKIITGKPSGAISGVQKAENGPIDWSGDMPVSCSLSRGLQVLLTPVLANILEADQEKCWGFDQFFAETSDILHRMVIHVFSLQQMTAHKIYIHSYNTATIFHELVYKQTKIISSNQELIYEGRRLVLEPGRLAQHFPKTTEENPIFVVSREPLNTIGLIYEKISLPKVHPRYDLDGDASMAKAITGVVCYACRIASTLLLYQELMRKGIRWLIELIKDDYNETVHKKTEVVITLDFCIRNIEKTVKVYEKLMKINLEAAELGEISDIHTKLLRLSSSQGTIETSLQDIDSRLSPGGSLADAWAHQEGTHPKDRNVEKLQVLLNCMTEIYYQFKKDKAERRLAYNEEQIHKFDKQKLYYHATKAMTHFTDECVKKYEAFLNKSEEWIRKMLHLRKQLLSLTNQCFDIEEEVSKYQEYTNELQETLPQKMFTASSGIKHTMTPIYPSSNTLVEMTLGMKKLKEEMEGVVKELAENNHILERFGSLTMDGGLRNVDCL

Key:
[1] = target: T1, viperin-mCherry; test: co-IP
[2] = target: viperin-3’Δ17-mCherry (UniProt Q8WXG1); test: co-IP
[3] = target: viperin-5’Δ33-mCherry (UniProt Q8WXG1); test: co-IP
[4] = target: T2, viperin-flag; test: proximity ligation
[5] = target: T1, viperin-mCherry; test: co-IP + cross-linking

Molecule	binding [1]	binding [2]	binding [3]	binding [4]	binding [5]
STING-myc (from UniProt Q86WV6 1-379)	binds	binds	binds	–	–
endogenous STING (from UniProt Q86WV6 1-379)	–	–	–	binds	–
B1	no binding	–	–	–	no binding
